# Source: patent US8741653B2, “Single recombination system and methods of use” (priority 2008, dated 2014)
# At least one structure is not confirmed: it was looked up by name or label, or the drawing left a doubt.
# System: MVA
# Format: cell-based, Modified Vaccinia Ankara virus
smiles,measurement,value
CN(C)[C@@H]1C(O)=C(C(N)=O)C(=O)[C@@]2(O)C(O)=C3C(=O)c4c(O)cccc4[C@@](C)(O)[C@H]3C[C@@H]12 [tetracycline],influence on MVA replication,no detectable influence
same,inhibition of viral replication,comparable to the observed effect of transiently expressed DNase
